Assay results as given in PubChem BioAssay AID493014 (National Center for Advancing Translational Sciences (NCATS), 2011).
The list shows a part of the results. The main result of the screen is listed elsewhere. These columns were measured beside it and carry no call. Most of these compounds were active or inconclusive in the main read-out, so they are no random draw. Potencies come from curve fits of mixed quality, noted in brackets.

Assay: qHTS Assay to Find Inhibitors of Chronic Active B-Cell Receptor Signaling
Settings: ABC-DLBCL IkBa-CBG/CBR reporter, luminescence ratio (green luciferase fused to IkBa over red control in TMD8 lymphoma cells), 4 h
In short: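 Compounds up to 46 uM were incubated four hours with TMD8 cells whose green CBG68 luciferase is fused to IkappaBalpha; red CBR luminescence normalised the signal, and concentration-effect curves were fitted to fusion, red and ratio data.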

[1] = measured here: CBR red luminescence, cell number
[2] = measured here: IkBa-CBG green luminescence

With `CC(C)Oc1ccccc1/C=N/Nc1ccccc1[N+](=O)[O-]` as the molecule, how does the AC50 [1] read?
The AC50 was 2.31 µM [rising, full curve].

Which AC50 [1] does the source give for `CC(C)NC(=O)N(C)C[C@@H]1Oc2ccc(NC(=O)CCN3CCOCC3)cc2CC(=O)N([C@@H](C)CO)C[C@@H]1C` here?
Its AC50 is 29.1 µM [rising, single point].

With `Cc1ccc(C)c(NS(=O)(=O)c2cc(C(=O)NCCC3=CCCCC3)ccc2C)c1` as the molecule, how does the AC50 [1] read?
Its AC50 is 25.9 µM [falling, single point].

With `CC(=O)c1ccc(NC(=O)CO/N=C(\C)c2cccs2)cc1` as the molecule, how does the AC50 [1] read?
The AC50 was 18.4 µM [rising, partial curve].

For `O=C(CSc1nc2ccccc2s1)c1ccc(O)cc1O`, which AC50 [1] is on record?
The AC50 was 5.62 µM [falling, partial curve, poor fit].

For `Nc1ccc(-c2ccc(C(=O)O)s2)cn1`, which AC50 [1] is on record?
Its AC50 is 3.55 µM [falling, full curve].

With `COc1cccc(N2CCN(C(=O)C3CCC(=O)N(C4CCCCCC4)C3)CC2)c1` (stereo not given) as the molecule, how does the AC50 [1] read?
The AC50 was 22.4 µM [falling, single point].

For `COC(=O)c1cc(Cl)c(NC(=O)/C=C/c2ccc(Cl)cc2)cc1OC`, which AC50 [1] is on record?
Its AC50 is 0.13 µM [rising, full curve, poor fit].

Which AC50 [1] does the source give for `Cc1ccc(C)c(C(C)NC(=O)c2ccc(Br)o2)c1` (stereo not given) here?
The AC50 was 12.6 µM [rising, single point].

For `O=C(Nc1ccc(C2=NCCN2)cc1)c1ccc(C(=O)Nc2ccc(C3=NCCN3)cc2)c(Cl)c1`, which AC50 [1] is on record?
Its AC50 is 15.8 µM [rising, single point].

With `CN(CC(=O)Nc1ccc(F)cc1[N+](=O)[O-])Cc1ccccc1` as the molecule, how does the AC50 [1] read?
The AC50 was 5.01 µM [rising, full curve].

With `C=CC[C@@H](Cc1ccc(F)cc1)C(=O)OC[C@H]1CCCN1C(=O)[C@@H](CC=C)CC(=O)N[C@@H](CO)Cc1ccccc1` as the molecule, how does the AC50 [1] read?
The AC50 was 32.6 µM [falling, single point].

With `CCCC(=O)N1CCN(c2nnc(-c3ccc(C)cc3)c3ccccc23)CC1` as the molecule, how does the AC50 [1] read?
The AC50 was 35.5 µM [falling, partial curve, poor fit].

For `O=C1CSC(c2cccc(F)c2)N1c1ccccc1F` (stereo not given), which AC50 [1] is on record?
The AC50 was 3.66 µM [falling, single point].

Which AC50 [1] does the source give for `CCOC(=O)C1CCN(C(=S)Nc2cc(OC)c(OC)cc2C(=O)OC)CC1` here?
The AC50 was 0.00411 µM [rising, full curve, poor fit].

With `CS(=O)(=O)c1ccc2nc(NC(=O)c3cccc(NS(=O)(=O)c4ccc(F)c(F)c4)c3)sc2c1` as the molecule, how does the AC50 [1] read?
Its AC50 is 29.1 µM [falling, single point].

What about the AC50 [2] of the same molecule?
The AC50 was 23.1 µM [rising, partial curve, poor fit].

For `CCOC(=O)c1c(C)n(-c2ccc(C)cc2)c2ccc(O)c(CN(C)C)c12`, which AC50 [1] is on record?
Its AC50 is 25.1 µM [falling, single point].

Which AC50 [1] does the source give for `COC(=O)CCCCCN1C(=O)NC(c2ccccc2)C(C(=O)OCc2ccccc2)=C1C` (stereo not given) here?
The AC50 was 23.1 µM [falling, single point].

Which AC50 [1] does the source give for `CCOC(=O)Cn1c(S(=O)(=O)Cc2ccccc2Cl)nc(-c2ccccc2)c1-c1ccccc1` here?
The AC50 was 9.2 µM [falling, partial curve].

Which AC50 [1] does the source give for `C=CCNC(=O)NC(=O)COC(=O)c1cccnc1SC` here?
The AC50 was 14.6 µM [rising, partial curve, poor fit].

For `COc1cccc2cc(-c3nc4ccc(C)cc4[nH]3)c(=O)oc12`, which AC50 [1] is on record?
The AC50 was 2.82 µM [falling, partial curve].

With `O=C(NC(=S)N1CCCCC1)c1cccs1` as the molecule, how does the AC50 [1] read?
Its AC50 is 25.9 µM [rising, single point].

For `Cc1c(C#N)c(N)c(C(=O)c2ccccc2)n1Cc1ccccc1`, which AC50 [1] is on record?
Its AC50 is 29.1 µM [rising, single point].

Which AC50 [1] does the source give for `O=C(N/N=C\C=C\c1ccco1)c1cc(-c2ccc3ccccc3c2)n[nH]1` here?
Its AC50 is 0.517 µM [rising, full curve, poor fit].

With `CC(C)CNC(=S)NC(=O)c1csc([N+](=O)[O-])c1` as the molecule, how does the AC50 [1] read?
The AC50 was 35.5 µM [rising, single point].

With `COc1ccc(-c2cc(C(=O)N(C)Cc3cccc(OC)c3OC)c3ccccc3n2)cc1OC` as the molecule, how does the AC50 [2] read?
The AC50 was 0.631 µM [falling, partial curve, poor fit].

For `CCCn1c(-c2ccc(OC)cc2)nc2ccccc21`, which AC50 [1] is on record?
The AC50 was 10 µM [falling, partial curve].

For `CC(C)(O)C(=O)N=Nc1c(O)[nH]c2ccccc12`, which AC50 [1] is on record?
Its AC50 is 35.5 µM [falling, single point].

For `Clc1cccc(Cl)c1C1=NOC(c2nnc(-c3ccccc3)o2)C1` (stereo not given), which AC50 [1] is on record?
The AC50 was 5.62 µM [rising, single point].

Which AC50 [1] does the source give for `CS/C(=C\[N+](=O)[O-])Nc1ccc(Cl)cc1` here?
Its AC50 is 4.61 µM [falling, full curve, poor fit].

For `Cn1c(SCC(=O)Nc2ccccc2)nc2c([nH]c3ccccc32)c1=O`, which AC50 [1] is on record?
Its AC50 is 1.12 µM [falling, partial curve, poor fit].

Which results are given for `Cc1[nH]c(=O)[nH]c(=O)c1NC(=O)c1sc2nc3c(C)cccc3cc2c1N`?
AC50 [1]: 14.6 µM [falling, partial curve, poor fit]; AC50 [2]: 0.92 µM [rising, full curve, poor fit]

Which AC50 [1] does the source give for `CCOc1cc(/C=N/NC(=O)c2cccs2)cc([N+](=O)[O-])c1O` here?
Its AC50 is 3.55 µM [falling, full curve, poor fit].

Which AC50 [1] does the source give for `c1ccc(-c2cc3cc4c(cc3cn2)OCO4)cc1` here?
Its AC50 is 29.1 µM [falling, single point].

For `COc1cccc(N/C=C/C(=O)c2ccc(Cl)cc2)c1`, which AC50 [1] is on record?
The AC50 was 16.4 µM [falling, partial curve].

With `O=C1N/C(=C/c2ccc(Br)s2)C(=O)N1c1ccccc1` as the molecule, how does the AC50 [1] read?
The AC50 was 11.2 µM [falling, partial curve].

With `O=S(=O)(c1ccccc1Cl)N1CCCC1c1nc(-c2ccc(Cl)cc2)no1` (stereo not given) as the molecule, how does the AC50 [1] read?
The AC50 was 16.4 µM [falling, partial curve, poor fit].

For `CCCCCCc1cc2cc(-c3nnc(-c4ccccc4OC)o3)c(=O)oc2cc1O`, which AC50 [1] is on record?
The AC50 was 11.6 µM [falling, partial curve, poor fit].

Which AC50 [1] does the source give for `CC1Cc2ccccc2N1C(=O)CSC1=NCCS1` (stereo not given) here?
Its AC50 is 3.98 µM [rising, full curve, poor fit].

For `COc1ccc(OC)c(NC(=O)c2cc3c(Cl)nc4ccccc4c3s2)c1`, which AC50 [1] is on record?
The AC50 was 1.3 µM [falling, full curve, poor fit].

With `C[C@H](CCC(=O)O)[C@H]1CC[C@H]2[C@@H]3[C@H](O)C[C@@H]4C[C@H](O)CC[C@]4(C)[C@H]3CC[C@]12C` as the molecule, how does the AC50 [1] read?
Its AC50 is 25.9 µM [falling, single point].

For `COc1ccc2[nH]c(=O)c(CN(Cc3nnnn3Cc3ccccc3)CC3CCCO3)cc2c1` (stereo not given), which AC50 [1] is on record?
The AC50 was 2.24 µM [rising, partial curve, poor fit].

For `COc1ccc2[nH]c3c(c2c1)CCN1C(=O)C(CC(=O)NCc2cccc(C(F)(F)F)c2)C[C@H](C(=O)N2CCCCC2)[C@@]31CCc1ccccc1` (stereo not given in full), which AC50 [1] is on record?
Its AC50 is 29.1 µM [rising, single point].

Which AC50 [1] does the source give for `Cc1ccc(NC2CCCN(C(=O)CN3C(=O)c4ccccc4C3=O)C2)cc1C` (stereo not given) here?
Its AC50 is 35.5 µM [rising, single point].

For `CCOc1cc2c3c(c1)C1(Nc4ccccc4S1)C(=O)N3C(C)(C)CC2C` (stereo not given), which AC50 [1] is on record?
Its AC50 is 0.058 µM [falling, full curve, poor fit].

Which AC50 [1] does the source give for `NNC(=O)COc1ccccc1F` here?
The AC50 was 18.4 µM [rising, partial curve, poor fit].

For `C/C(=N\NC(=O)C(C)n1nc(C)c([N+](=O)[O-])c1C)c1ccccc1O` (stereo not given), which AC50 [2] is on record?
The AC50 was 9.2 µM [falling, partial curve].

For `COc1ccc2nc(Nc3ccc4c(c3)OCO4)sc2c1`, which AC50 [1] is on record?
The AC50 was 11.6 µM [falling, partial curve].

For `Fc1ccc(-c2nnn3c2nc(NCc2ccccc2)c2ccccc23)cc1`, which AC50 [1] is on record?
Its AC50 is 7.08 µM [falling, partial curve, poor fit].

With `COc1cccc(Nc2ccc(C(=O)O)cc2N)c1` as the molecule, how does the AC50 [1] read?
Its AC50 is 0.631 µM [falling, full curve].

For `COc1ccc(C2=NC(C(F)(F)F)(C(F)(F)F)c3c(n(C)c(=O)n(C)c3=O)N2)cc1`, which AC50 [1] is on record?
Its AC50 is 0.0891 µM [rising, full curve, poor fit].

For `Cc1ccccc1N(CC(=O)Nc1ccccc1C(=O)O)S(C)(=O)=O`, which AC50 [1] is on record?
Its AC50 is 7.08 µM [falling, partial curve, poor fit].

With `S=c1[nH]c2cc3ccccc3cc2[nH]1` as the molecule, how does the AC50 [1] read?
The AC50 was 5.62 µM [falling, partial curve].

For `CN1CCN(C(=O)CN(Cc2ccccc2)S(C)(=O)=O)CC1`, which AC50 [1] is on record?
Its AC50 is 29.1 µM [falling, single point].

With `O=C(CCCCl)NC(=S)Nc1ccc(N2CCOCC2)cc1` as the molecule, how does the AC50 [1] read?
The AC50 was 3.16 µM [rising, partial curve, poor fit].

For `Cc1ccc2[nH]c(=O)c(CN(CCN3CCOCC3)C(=O)Nc3ccccc3F)cc2c1`, which AC50 [1] is on record?
The AC50 was 5.17 µM [rising, full curve, poor fit].

Which AC50 [1] does the source give for `N#CC1=C(N)Oc2cc(N)ccc2C1c1ccc(F)cc1` (stereo not given) here?
The AC50 was 29.1 µM [falling, single point].

For `COc1cc(C(=O)O)ccc1OCc1c(C)noc1C`, which AC50 [1] is on record?
The AC50 was 29.1 µM [rising, single point].

For `CC(=O)Nc1ccc(S(=O)(=O)NC2CC(=O)N(c3cccc(F)c3)C2)cc1` (stereo not given), which AC50 [1] is on record?
The AC50 was 0.82 µM [rising, partial curve, poor fit].

With `Cc1nc(CNS(=O)(=O)c2ccc(Br)cc2)cs1` as the molecule, how does the AC50 [1] read?
Its AC50 is 20 µM [rising, single point].

With `O=C(Nc1ccccc1C(F)(F)F)c1cc2ncc(CCCl)cn2n1` as the molecule, how does the AC50 [1] read?
Its AC50 is 6.51 µM [rising, partial curve, poor fit].

Which AC50 [1] does the source give for `O=C(Nc1ccc(Cl)cc1)Nc1nnc(CSc2ccc(Cl)cc2)s1` here?
The AC50 was 5.8 µM [rising, full curve].

With `Cc1cc(=O)oc2cc(OCC3CC(c4ccc(Cl)cc4)=NO3)ccc12` (stereo not given) as the molecule, how does the AC50 [1] read?
The AC50 was 23.1 µM [rising, partial curve, poor fit].
